# Values from PubChem BioAssay AID652259 (Drosophila RNAi Screening Center, 2013).
# Test: 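Identify new Wingless signalling regulators in fly cells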 (primary screen)
# Cell system: Drosophila clone 8 imaginal disc epithelial cells
# Reagent: long dsRNA against Drosophila genes
# Treatment: pathway stimulated by co-transfected Wingless expression plasmid
# Detection: 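Dual luciferase reads per well after Wingless plasmid stimulation: reporter firefly light and Renilla control light; activity is firefly divided by Renilla, a ratio not deposited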
# Direction: firefly reporter light: higher = more Wg reporter light, before normalisation; Renilla control light: higher = more transfected or surviving cells
# Hit rule: 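a knock-down is a candidate when at least two out of four statistical tests show it departing from its plate mean; one test alone signals a weak candidate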
# Meaning of the calls: active = candidate regulator (raises or lowers reporter); inactive = not a candidate
# The deposit covers about 22,000 reagents; this is an unselected part of those with a known target gene and a result. Over the whole deposit, 233 (1.1%) were called active. 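Light values are raw, unnormalised plate reads; the ratio scores behind the reporter calls were not deposited.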 Unmarked entries are inactive. Names joined by + are all predicted targets of the reagent. Not stated in the record: the amount of reagent, the time to read-out, the dose of the treatment.
The opening 4 entries as a preview:
gene,dsRNA,"reporter change call, replicate 1","firefly reporter light, replicate 1","firefly reporter light, replicate 2","Renilla control light, replicate 1","Renilla control light, replicate 2"
HisRS (GeneID 32841),DRSC19986,,23803,,8139,
CG11106 (GeneID 32062),DRSC19381,,17954,,9168,
Csp (GeneID 40459),DRSC11860,,6083,,2656,
E(bx) (GeneID 44811),DRSC08172,,4160,,2400,

Results, from the start:
gene,dsRNA,"reporter change call, replicate 1","firefly reporter light, replicate 1","firefly reporter light, replicate 2","Renilla control light, replicate 1","Renilla control light, replicate 2"
HisRS (GeneID 32841),DRSC19986,,23803,,8139,
CG11106 (GeneID 32062),DRSC19381,,17954,,9168,
Csp (GeneID 40459),DRSC11860,,6083,,2656,
E(bx) (GeneID 44811),DRSC08172,,4160,,2400,
E(bx) (GeneID 44811),DRSC08509,,5824,,2024,
E(bx) (GeneID 44811),DRSC08583,,12205,,2512,
Hk (GeneID 31955),DRSC17638,,1264,,1009,
Hk (GeneID 31955),DRSC17639,,3936,,728,
Hk (GeneID 31955),DRSC18138,,2528,6368,659,1264
Hk (GeneID 31955),DRSC18674,,13125,,5692,
Fatp (retired record) (GeneID 44227),DRSC03054,,8199,,2106,
FoxL1 (GeneID 38471),DRSC08717,,8003,,3194,
CG34176 (GeneID 5740391),DRSC00435,,4056,8425,1234,2345
TwdlP (GeneID 43201),DRSC14734,,6012,,3846,
puml (GeneID 35733),DRSC06793,,2106,7347,260,3213
CG9008 (GeneID 34779),DRSC01889,,6451,,3649,
CG15728 (GeneID 32214),DRSC19694,,29825,,15461,
CG15728 (GeneID 32214),DRSC22868,,5.00e5,7.26e5,2.13e5,3.21e5
CG34106 (GeneID 4379891),DRSC01578,,18845,,8920,
Nmdmc (GeneID 47895),DRSC16760,,6585,,2437,
CG1503 (GeneID 33090),DRSC20512,,1792,4962,688,2002
CG14803 (GeneID 31142),DRSC18556,,25062,,16648,
Vha55 (GeneID 41550),DRSC16896,,12502,,3581,
Bx (GeneID 32846),DRSC19350,,17363,,4628,
Bx (GeneID 32846),DRSC19624,,22272,,10547,
Lcp65Af (GeneID 45017),DRSC11213,,1226,11920,1008,3581
Cc2d2a (GeneID 36982),DRSC06750,,5793,,1952,
Cc2d2a (GeneID 36982),DRSC06779,,5174,,2086,
Lac (GeneID 36363),DRSC07452,,6775,,2861,
Hayan (GeneID 32831),DRSC19989,,3312,7860,1152,2788
Hayan (GeneID 32831),DRSC22231,,8.42e5,8.44e5,3.72e5,3.91e5
lilli (GeneID 33496),DRSC00708,Wg reporter activity lowered (active),3280,,4480,
CG9444 (GeneID 41175),DRSC16493,,12796,,3745,
CG32344 (GeneID 326208),DRSC08578,,14393,,4568,
aru (GeneID 33268),DRSC00802,,3429,9013,1689,3985
aru (GeneID 33268),DRSC22019,,5.42e5,5.03e5,1.25e5,1.52e5
CG3008 (GeneID 33693),DRSC00560,,2180,3868,890,843
CG3777 (GeneID 30979),DRSC18489,,4217,,791,
PGRP-LC (GeneID 39063),DRSC08980,,1946,,513,
PGRP-LC (GeneID 39063),DRSC10416,,7826,,4420,
PGRP-LC (GeneID 39063),DRSC10417,,3883,,2261,
CG11843 (GeneID 43432),DRSC14401,,8170,,2576,
PolE4 (GeneID 37560),DRSC04105,,3512,7200,499,2868
CG9485 (GeneID 37435),DRSC04557,,9765,,3216,
H (GeneID 42445),DRSC16692,,16379,,4074,
Act79B (GeneID 40444),DRSC11604,,16610,,3489,
CG33461 (GeneID 2768840),DRSC22892,,6.94e5,4.43e5,2.93e5,1.63e5
CG11737 (GeneID 41009),DRSC14364,,12134,,2113,
CalpC (GeneID 32597),DRSC19873,,14596,,7522,
TotF (GeneID 117461),DRSC02305,,2292,10450,128,4448
Obp50e (GeneID 36600),DRSC06434,,6125,,2012,
SmD3 (GeneID 36306),DRSC07553,,11031,,1668,
Pcyt1 (GeneID 117353),DRSC08157,,13884,,4235,
CG9961 (GeneID 33459),DRSC00738,,1788,5451,804,1696
rho-7 (GeneID 36281),DRSC07304,,7193,,2871,
Ir11a (GeneID 32189),DRSC19699,,22663,,9602,
Col4a1 (GeneID 33727),DRSC03291,,8761,,4260,
Hsp83 (GeneID 38389),DRSC08664,Wg reporter activity raised,15433,,2870,
ATPsynbeta (GeneID 43829),DRSC17194,,16855,,8889,
dah (GeneID 32459),DRSC20320,,2418,7562,941,2845
CG31775 + CG42586,DRSC22289,,7.89e5,8.22e5,3.54e5,4.16e5
l(2)k09913 (GeneID 37661),DRSC04699,,8842,,2288,
CG5282 (GeneID 40256),DRSC11775,,7602,,1923,
Tpc1 (GeneID 41316),DRSC15614,,10522,,3330,
Tpc1 (GeneID 41316),DRSC16074,,5984,,2048,
CG13023 (GeneID 39894),DRSC09454,,2816,,1232,
CG13023 (GeneID 39894),DRSC09903,,9488,,3816,
Klp59D (GeneID 37674),DRSC04118,,4256,9977,771,3594
CG12231 (GeneID 32942),DRSC19445,,14185,,8388,
rush (GeneID 31105),DRSC18568,,3786,10897,1946,3836
Octalpha2R (GeneID 42258),DRSC13319,,3328,,1019,
Octalpha2R (GeneID 42258),DRSC15314,,8989,,1754,
CYTB (retired record) (GeneID 192472),DRSC21272,,16148,,11656,
